Biological target: Pdr5 (Saccharomyces cerevisiae, UniProt P33302)
Experiment: biochemical

Chains of the proteins cited; added tags and fusions are not shown. Lines headed by an entry give the natural chain unless they say otherwise; changes in a name come on top.
UniProt P33302: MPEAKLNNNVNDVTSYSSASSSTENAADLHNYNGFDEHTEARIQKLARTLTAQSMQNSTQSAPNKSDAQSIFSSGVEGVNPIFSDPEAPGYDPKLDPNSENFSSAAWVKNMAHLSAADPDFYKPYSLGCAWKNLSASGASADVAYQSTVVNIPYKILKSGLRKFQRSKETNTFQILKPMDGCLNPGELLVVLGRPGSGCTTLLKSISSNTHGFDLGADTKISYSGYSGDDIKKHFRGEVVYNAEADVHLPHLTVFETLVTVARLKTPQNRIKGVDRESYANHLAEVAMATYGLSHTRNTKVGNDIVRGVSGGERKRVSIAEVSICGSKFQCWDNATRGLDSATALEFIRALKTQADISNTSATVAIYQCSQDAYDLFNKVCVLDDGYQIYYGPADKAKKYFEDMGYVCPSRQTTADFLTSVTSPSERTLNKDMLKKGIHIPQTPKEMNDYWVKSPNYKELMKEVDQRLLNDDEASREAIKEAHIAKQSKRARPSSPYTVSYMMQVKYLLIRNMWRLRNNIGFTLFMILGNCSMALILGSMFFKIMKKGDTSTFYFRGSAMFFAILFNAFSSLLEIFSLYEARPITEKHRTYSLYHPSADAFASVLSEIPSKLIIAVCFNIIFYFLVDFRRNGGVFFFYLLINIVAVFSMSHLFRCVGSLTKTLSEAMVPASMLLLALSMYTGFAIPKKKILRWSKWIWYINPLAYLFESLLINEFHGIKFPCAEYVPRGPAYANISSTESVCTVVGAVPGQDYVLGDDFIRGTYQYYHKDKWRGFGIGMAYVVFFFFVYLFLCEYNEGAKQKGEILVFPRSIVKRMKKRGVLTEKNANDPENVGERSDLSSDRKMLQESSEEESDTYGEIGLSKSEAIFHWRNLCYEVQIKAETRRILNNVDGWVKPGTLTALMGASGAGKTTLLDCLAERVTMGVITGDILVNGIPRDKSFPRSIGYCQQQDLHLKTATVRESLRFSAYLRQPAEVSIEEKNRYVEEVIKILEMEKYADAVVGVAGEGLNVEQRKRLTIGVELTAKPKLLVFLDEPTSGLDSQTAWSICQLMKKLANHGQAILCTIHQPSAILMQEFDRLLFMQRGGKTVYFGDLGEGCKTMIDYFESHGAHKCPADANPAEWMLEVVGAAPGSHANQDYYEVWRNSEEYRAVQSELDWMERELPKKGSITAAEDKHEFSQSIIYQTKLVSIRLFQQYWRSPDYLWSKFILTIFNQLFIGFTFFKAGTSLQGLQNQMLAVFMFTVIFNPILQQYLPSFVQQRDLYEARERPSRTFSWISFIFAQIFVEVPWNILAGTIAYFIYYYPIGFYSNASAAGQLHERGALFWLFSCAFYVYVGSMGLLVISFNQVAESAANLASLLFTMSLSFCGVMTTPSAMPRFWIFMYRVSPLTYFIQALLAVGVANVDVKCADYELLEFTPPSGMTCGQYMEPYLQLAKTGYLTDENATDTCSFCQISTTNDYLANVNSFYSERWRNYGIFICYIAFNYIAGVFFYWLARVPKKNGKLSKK

Compound: Clc1ccccc1C(c1ccccc1)(c1ccccc1)n1ccnc1 [clo, clotrimazole]
- IC50: ~20 µM

Reference: PMC2954458 (Biochemistry, 2010)
